Assay results: article PMC4741493

Amino acid sequences for entries named in this document (tags omitted). A change or cut given only in a name is not applied to a line headed by its entry.
UniProt P35613: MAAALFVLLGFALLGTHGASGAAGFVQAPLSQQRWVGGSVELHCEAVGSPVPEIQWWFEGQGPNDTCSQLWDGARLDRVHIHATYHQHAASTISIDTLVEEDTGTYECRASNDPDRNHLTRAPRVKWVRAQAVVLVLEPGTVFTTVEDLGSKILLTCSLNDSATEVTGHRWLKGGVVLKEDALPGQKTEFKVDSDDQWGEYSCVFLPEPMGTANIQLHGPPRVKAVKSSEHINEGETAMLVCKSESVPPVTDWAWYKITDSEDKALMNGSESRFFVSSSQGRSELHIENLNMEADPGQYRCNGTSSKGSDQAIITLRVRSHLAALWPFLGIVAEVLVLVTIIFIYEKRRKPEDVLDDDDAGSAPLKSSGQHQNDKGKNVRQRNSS

Assays:
[1] = biological target: CD147 (human (endogenous in HepG2)) (UniProt P35613); test: co-IP; endogenous CD147 complexes from HepG2 cells treated with Tg (high [Ca^2+]i), 1% OG buffer lysate, protein A-agarose overnight at 4°C, blotted for CaMKP
[2] = biological target: CD147 (human (endogenous in HepG2)) (UniProt P35613); test: condition: only cells treated with BAPTA-AM (low [Ca^2+]i); co-IP; endogenous CD147 complexes from HepG2 cells treated with BAPTA-AM (low [Ca^2+]i), 1% OG buffer lysate, protein A-agarose overnight at 4°C, blotted for CaMKP
[3] = biological target: CD147 (human (endogenous in HepG2)) (UniProt P35613); test: condition: only cells treated with Tg and the CaMKII inhibitor KN-93; co-IP; endogenous CD147 complexes from HepG2 cells treated with Tg and the CaMKII inhibitor KN-93 in combination, 1% OG buffer lysate, protein A-agarose overnight at 4°C, blotted for CaMKP

- binding [1]: binds
- binding [2]: no binding
- binding [3]: no binding
B1: Ca^2+-dependent protein kinase phosphatase (CaMKP) (enzyme, UniProt P49593 1-454)
chain: MSSGAPQKSSPMASGAEETPGFLDTLLQDFPALLNPEDPLPWKAPGTVLSQEEVEGELAELAMGFLGSRKAPPPLAAALAHEAVSQLLQTDLSEFRKLPREEEEEEEDDDEEEKAPVTLLDAQSLAQSFFNRLWEVAGQWQKQVPLAARASQRQWLVSIHAIRNTRRKMEDRHVSLPSFNQLFGLSDPVNRAYFAVFDGHGGVDAARYAAVHVHTNAARQPELPTDPEGALREAFRRTDQMFLRKAKRERLQSGTTGVCALIAGATLHVAWLGDSQVILVQQGQVVKLMEPHRPERQDEKARIEALGGFVSHMDCWRVNGTLAVSRAIGDVFQKPYVSGEADAASRALTGSEDYLLLACDGFFDVVPHQEVVGLVQSHLTRQQGSGLRVAEELVAAARERGSHDNITVMVVFLRDPQELLEGGNQGEGDPQAEGRRQDLPSSLPEPETQAPPRS

These are yes or no findings as the source states them, for the method shown. In cells and extracts the contact can be indirect. For part of these data: Binding calls can cover weak binding; strength is not graded here.
